# Publication PMC11056994, “Potentiating Activity of GmhA Inhibitors on Gram-Negative Bacteria” (Journal of Medicinal Chemistry, 2024)
# Tested on: E. coli C7 (018:K1:H7) LPS biosynthesis
# Assay: Inhibition of bacterial LPS biosynthesis (silver-stained LPS SDS-PAGE)
# Type: cell-based
# Conditions: for Ratio EC50/IC50: LPS biosynthesis EC50 / GmhA IC50; for EC50/IC50: supplementary csv
# Procedure: The compounds to be tested were prepared in deionized water/DMSO (50/50) solutions and added (25 μL) in sterile culture microtubes. The test bacterial isolate was isolated on tryptic soy agar (TSA) overnight. Isolated colonies were cultured in 10 mL of LB medium at 37 °C up to an OD of typically 0.15. These exponentially growing bacteria were finally diluted to 5 × 10^5 cfu/mL and added in each well (225 μL) for incubation with the compounds at 37 °C for approximately 5 h, up to an OD of ≈0.2–0.4. Some test compounds, e.g., phospho-sugars are actively transported into the bacterial cytosol via the phospho-sugar transporter UhpT (Figure S3). 2.5 μL portion of a 10 mM water solution of glucose-6-phosphate (G6P, 100 μM final concentration, from Sigma) was added in the culture tube in order to induce UhpT expression. LPS extraction: Bacterial cultures were normalized via OD determination, pelleted, and washed with 1 mL of phosphate-buffered-saline (PBS). The pellets were then denatured for 10 min at 95–100 °C in 50 μL of 0.2% sodium dodecyl sulfate (SDS), β-mercaptoethanol 1%, glycerol 36%, Tris 30 mM, pH 7.4, and bromophenol blue 0.001%. Samples were cooled down to room temperature, supplemented with 1.5 μL of proteinase K at 20 mg/mL, incubated for 1 h at 55 °C, and centrifuged for 30 min at 13,000 rpm at 25 °C. The resulting supernatant, containing LPS, was finally analyzed by SDS-PAGE electrophoresis. LPS SDS-PAGE electrophoresis: Polyacrylamide gels (16%/4% acrylamide for separation and concentration, respectively) were prepared, loaded with 8 μL of LPS extracts, and migrated. Silver staining: Gels were incubated overnight in 5% acetic acid/40% ethanol/deionized water, treated by 1% periodic acid/5% acetic acid for 15 min, washed 4 times for 10 min in deionized water, and finally incubated for 18 min in the dark in a silver nitrate solution composed of 56 mL of 0.1 M NaOH (56 mL), 33% aq ammonia (4 mL), 5% AgNO3 (45 mL), and deionized water (195 mL). Gels were then washed extensively in deionized water for 30 min and incubated for 10–15 min (up to LPS band appearance) in the revelation mix composed of 300 mL of deionized water (300 mL), 36.5% formaldehyde (0.3 mL, Fluka), and 2.3 M citric acid (0.1 mL). The revelation was stopped by incubating the gels in 10% acetic acid for 5 min. Gels were finally washed in deionized water, numerized with a Samsung PL51 camera, and analyzed by ImageJ software. The percentage of inhibition of LPS heptosylation was defined as the relative area of the Re-LPS band compared to the cumulated areas of Re-LPS and Core-LPS bands.
Compound,Ratio EC50/IC50,EC50/IC50
O=CN(O)C[C@H](O)[C@H](O)[C@H](O)CC(O)P(=O)([O-])O.[Na+] (some centres unmarked) [Compound 41],"10,000",–
O=CN(O)C[C@H](O)[C@H](O)[C@H](O)COP(=O)(O)O [Compound 17],"8,300",–
O=C(NO)[C@@H](O)[C@H](O)[C@H](O)[C@H](O)COP(=O)(O)O [Compound 96],"> 6,000",>6000
O=CN(O)C[C@H](O)[C@H](O)[C@H](O)C(O)CP(=O)([O-])O.[Na+] (some centres unmarked) [Compound 31],"2,400",–
O=CN(O)C[C@H](O)[C@H](O)[C@H](O)/C=C/P(=O)([O-])O.[Na+] [Compound 25],"8,700",–
O=CN(O)C[C@H](O)[C@H](O)[C@H](O)CC(F)P(=O)([O-])O.[Na+] (some centres unmarked) [Compound 76],"5,100",–
O=CN(O)C[C@H](O)[C@H](O)[C@H](O)CP(=O)(O)O [Compound 20],">1,400",>1400
O=CN(O)C[C@H](O)[C@H](O)[C@H](O)C(O)C(O)P(=O)([O-])O.[Na+] (some centres unmarked) [Compound 27],">1,300",>1300
